The results in this text go back to patent US20040018977A1.

Protein sequences, listed by entry. Tags and fused reporters are not part of them. Residues count along the entry.
UniProt Q9UIW2, residues 27-1896: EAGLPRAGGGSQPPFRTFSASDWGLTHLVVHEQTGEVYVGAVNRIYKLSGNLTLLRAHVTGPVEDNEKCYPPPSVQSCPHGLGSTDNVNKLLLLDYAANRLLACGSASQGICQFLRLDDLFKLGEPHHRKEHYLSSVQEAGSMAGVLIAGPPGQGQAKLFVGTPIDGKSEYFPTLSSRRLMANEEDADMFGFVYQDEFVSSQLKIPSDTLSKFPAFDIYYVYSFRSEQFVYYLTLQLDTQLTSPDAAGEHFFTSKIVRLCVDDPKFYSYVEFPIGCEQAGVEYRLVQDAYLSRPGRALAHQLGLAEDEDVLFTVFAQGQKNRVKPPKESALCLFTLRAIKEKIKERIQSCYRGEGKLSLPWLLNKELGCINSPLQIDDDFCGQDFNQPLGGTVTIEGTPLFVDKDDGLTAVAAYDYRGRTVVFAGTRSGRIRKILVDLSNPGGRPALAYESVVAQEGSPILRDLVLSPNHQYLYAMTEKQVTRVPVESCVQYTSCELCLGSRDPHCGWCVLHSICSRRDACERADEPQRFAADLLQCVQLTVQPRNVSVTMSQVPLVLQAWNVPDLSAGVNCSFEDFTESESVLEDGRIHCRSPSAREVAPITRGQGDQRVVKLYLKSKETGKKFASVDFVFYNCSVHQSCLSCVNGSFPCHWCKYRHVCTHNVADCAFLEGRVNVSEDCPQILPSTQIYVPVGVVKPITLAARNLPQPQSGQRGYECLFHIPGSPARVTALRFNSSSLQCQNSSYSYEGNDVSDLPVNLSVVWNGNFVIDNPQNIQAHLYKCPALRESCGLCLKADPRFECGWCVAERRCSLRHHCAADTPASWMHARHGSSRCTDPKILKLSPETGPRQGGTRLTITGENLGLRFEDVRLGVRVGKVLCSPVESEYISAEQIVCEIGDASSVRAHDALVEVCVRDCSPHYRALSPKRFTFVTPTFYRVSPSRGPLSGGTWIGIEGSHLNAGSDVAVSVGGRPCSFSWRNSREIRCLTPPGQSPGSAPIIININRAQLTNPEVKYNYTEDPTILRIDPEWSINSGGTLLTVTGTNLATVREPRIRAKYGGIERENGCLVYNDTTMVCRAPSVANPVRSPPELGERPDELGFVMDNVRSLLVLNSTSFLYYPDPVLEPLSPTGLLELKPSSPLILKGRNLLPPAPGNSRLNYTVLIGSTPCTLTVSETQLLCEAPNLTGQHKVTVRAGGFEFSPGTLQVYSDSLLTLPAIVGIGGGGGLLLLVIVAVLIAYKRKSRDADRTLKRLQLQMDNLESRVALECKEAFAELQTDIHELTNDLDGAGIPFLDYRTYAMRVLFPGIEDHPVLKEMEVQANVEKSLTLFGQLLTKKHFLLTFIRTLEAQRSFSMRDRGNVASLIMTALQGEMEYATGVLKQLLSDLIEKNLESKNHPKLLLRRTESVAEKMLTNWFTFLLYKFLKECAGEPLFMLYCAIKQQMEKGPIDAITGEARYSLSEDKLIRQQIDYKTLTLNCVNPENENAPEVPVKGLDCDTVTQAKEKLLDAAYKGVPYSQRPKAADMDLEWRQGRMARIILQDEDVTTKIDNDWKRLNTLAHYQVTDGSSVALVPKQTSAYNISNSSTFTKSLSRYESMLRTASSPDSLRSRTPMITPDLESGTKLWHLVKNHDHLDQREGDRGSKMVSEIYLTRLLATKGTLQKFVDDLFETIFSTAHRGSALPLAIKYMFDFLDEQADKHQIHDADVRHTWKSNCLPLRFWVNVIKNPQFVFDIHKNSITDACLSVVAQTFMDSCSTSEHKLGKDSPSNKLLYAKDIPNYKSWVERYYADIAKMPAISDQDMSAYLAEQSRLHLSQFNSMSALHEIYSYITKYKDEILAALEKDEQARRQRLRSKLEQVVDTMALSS

Results are given in words; binding and its absence hold for the method and conditions named. For part of these data: Binding seen in cells or lysates may run through a third protein. Some results given as binding are weak or reduced against the parent protein; the word gives no strength. Where a sequence is shown, tags or fusion partners need not be part of it.

Assay [1] has as its target T1, ARGBP2, Arg/Abl binding protein, aa 319-1100, Activation Domain (AD) fusion (human) (UniProt O94875).
T1 sequence (looked up): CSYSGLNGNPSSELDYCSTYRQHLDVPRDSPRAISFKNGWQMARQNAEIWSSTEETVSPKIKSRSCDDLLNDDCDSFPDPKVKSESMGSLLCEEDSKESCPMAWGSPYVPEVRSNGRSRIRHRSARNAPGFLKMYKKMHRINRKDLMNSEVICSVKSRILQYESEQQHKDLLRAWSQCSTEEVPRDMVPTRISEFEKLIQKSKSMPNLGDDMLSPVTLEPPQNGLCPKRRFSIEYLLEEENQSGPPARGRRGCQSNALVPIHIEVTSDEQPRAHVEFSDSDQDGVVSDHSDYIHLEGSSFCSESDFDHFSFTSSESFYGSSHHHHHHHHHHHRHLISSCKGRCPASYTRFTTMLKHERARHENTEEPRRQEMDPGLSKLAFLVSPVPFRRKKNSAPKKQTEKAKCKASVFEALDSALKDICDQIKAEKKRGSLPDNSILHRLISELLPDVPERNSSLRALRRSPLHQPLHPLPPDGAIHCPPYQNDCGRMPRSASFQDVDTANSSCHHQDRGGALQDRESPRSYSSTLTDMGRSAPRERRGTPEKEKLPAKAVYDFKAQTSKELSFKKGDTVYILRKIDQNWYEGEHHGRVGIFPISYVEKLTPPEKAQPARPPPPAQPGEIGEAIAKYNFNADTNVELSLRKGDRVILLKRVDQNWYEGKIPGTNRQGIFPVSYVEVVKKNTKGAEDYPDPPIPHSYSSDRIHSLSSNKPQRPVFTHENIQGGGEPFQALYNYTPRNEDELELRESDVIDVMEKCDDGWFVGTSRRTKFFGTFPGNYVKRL
Nature of the assay: yeast two-hybrid screen (PathCalling).

Assay [2] addresses Plexin A1 with c-myc epitope (UniProt Q9UIW2). Nature of the assay: co-immunoprecipitation, Western blot. (In general: In western blotting, separated proteins are transferred to a membrane and probed.)
The target is the same in assay [3]. The assay is described as follows: co-immunoprecipitation from co-transfected cells (IP c-myc / blot V5-his, and IP V5-his / blot c-myc).

B1: CG51896-10, intracellular domain, aa 805-1047, Binding Domain (BD) fusion (protein, not shown: large carriers)
chain: TKDMPPMGSPVIPTDLPLRASPSHIPSVVVLPITQQGYQHEYVDQPKMSEVAQMALEDQAATLEYKTIKEHLSSKSPNHGVNLVENLDSLPPKVPQREASLGPPGASLSQTGLSKRLEMHHSSSYGVDYKRSYPTNSLTRSHQATTLKRNNTNSSNSSHLSRNQSFGRGDNPPPAPQRVDSIQVHSSQPSGQAVTVSRQPSLNAYNSLTRSGLKRTPSLKPDVPPKPSFAPLSTSMKPNDACT
B1: in assay [1], the binding result is on record as “binds”.

B2: CG51896-02 (Semaphorin 6A extracellular domain) with V5-His epitope (ligand, not shown: small tags and cut ends)
chain: GFPEDSEPISISHGNYTKQYPVFVGHKPGRNTTQRHRLDIQMIMIMNGTLYIAARDHIYTVDIDTSHTEEIYCSKKLTWKSRQADVDTCRMKGKHKDECHNFIKVLLKKNDDALFVCGTNAFNPSCRNYKMDTLEPFGDEFSGMARCPYDAKHANVALFADGKLYSATVTDFLAIDAVIYRSLGESPTLRTVKHDSKWLKEPYFVQAVDYGDYIYFFFREIAVEYNTMGKVVFPRVAQVCKNDMGGSQRVLEKQWTSFLKARLNCSVPGDSHFYFNILQAVTDVIRINGRDVVLATFSTPYNSIPGSAVCAYDMLDIASVFTGRFKEQKSPDSTWTPVPDERVPKPRPGCCAGSSSLERYATSNEFPDDTLNFIKTHPLMDEAVPSIFNRPWFLRTMVRYRLTKIAVDTAAGPYQNHTVVFLGSEKGIILKFLARIGNSGFLNDSLFLEEMSVYNSEKCSYDGVEDKRIMGMQLDRASSSLYVAFSTCVIKVPLGRCERHGKCKKTCIASRDPYCGWIKEGGACSHLSPNSRLTFEQDIERGNTDGLGDCHNSFVALNGHSSSLLPSTTTSDSTAQEGYESRGGMLDWKHLLDSPDSTDPLGAVSSHNHQDKKGVIRESYLKGHDQ
Regarding B2, the binding entry in assay [2] and in assay [3] was “binds” in each case.
